Results are given in words; binding and its absence hold for the method and conditions named. For some of these results: A result given as binding can be weak or reduced; the word gives no strength. For some of these results: Tags and fused reporters may be left off the sequences shown.
Assays:
[1] = molecular target: T1, biotinylated avi-tagged TβRI (human) (UniProt P36897); experiment: SPR
T1 sequence (chain, biotin (biotinylated avi tag)): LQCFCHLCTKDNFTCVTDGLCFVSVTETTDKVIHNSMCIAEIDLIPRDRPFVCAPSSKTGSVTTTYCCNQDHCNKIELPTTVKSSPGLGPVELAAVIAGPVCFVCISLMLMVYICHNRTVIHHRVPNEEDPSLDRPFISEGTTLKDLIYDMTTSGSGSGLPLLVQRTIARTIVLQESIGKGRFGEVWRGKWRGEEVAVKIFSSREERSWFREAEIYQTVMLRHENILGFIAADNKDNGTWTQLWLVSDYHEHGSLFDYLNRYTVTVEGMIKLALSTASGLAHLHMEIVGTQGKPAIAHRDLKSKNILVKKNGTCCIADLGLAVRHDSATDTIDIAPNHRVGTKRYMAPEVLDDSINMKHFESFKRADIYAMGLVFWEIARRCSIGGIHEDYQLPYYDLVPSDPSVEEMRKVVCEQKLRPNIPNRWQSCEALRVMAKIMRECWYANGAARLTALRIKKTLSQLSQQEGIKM

TβRI ectodomain (human) = molecular target: T2, TβRI ectodomain (human) (UniProt P36897); experiment: NMR titration
T2 sequence: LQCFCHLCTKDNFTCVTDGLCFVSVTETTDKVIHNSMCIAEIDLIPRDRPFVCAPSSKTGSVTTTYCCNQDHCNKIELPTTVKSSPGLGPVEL

| binding [1] | binding (TβRI ectodomain (human)) | Substance |
| --- | --- | --- |
| no binding (tested: 1.0 μM) | – | TGM domain 3 (Heligmosomoides polygyrus) (domain or fragment) |
| – | binds | TGM domain 2 (Heligmosomoides polygyrus) (domain or fragment) |
| no binding (tested: 1.0 μM) | binds weakly | TGM domain 1 (Heligmosomoides polygyrus) (domain or fragment) |

Source: publication doi:10.1101/2020.12.08.416701
